Data reported in US20100184668A1.

What was measured:
[1] = target: GST-CD36 fusion protein spanning amino acids 5-143 of CD36; assay: GST pull-down, Western blot (FIG. 5C)
[2] = target: GST-CD36 fusion protein spanning amino acids 5-143 of CD36; assay: GST pull-down on glutathione sepharose beads from conditioned medium, Western blot
[3] = target: GST-CD36 fusion protein spanning amino acids 5-143 of CD36; assay: GST pull-down (FIGS. 5A-5C)

- binding [1]: binds
- binding [2]: binds
- binding [3]: binds
B1: Vasculostatin 120 (Vstat120), myc/his-tagged, secreted into conditioned medium (protein, not shown: small tags and cut ends)
chain: GADAGPGPEPCATLVQGKFFGYFSAAAVFPANASRCSWTLRNPDPRRYTLYMKVAKAPVPCSGPGRVRTYQFDSFLESTRTYLGVESFDEVLRLCDPSAPLAFLQASKQFLQMRRQQPPQHDGLRPRAGPPGPTDDFSVEYLVVGNRNPSRAACQMLCRWLDACLAGSRSSHPCGIMQTPCACLGGEAGGPAAGPLAPRGDVCLRDAVAGGPENCLTSLTQDRGGHGATGGWKLWSLWGECTRDCGGGLQTRTRTCLPAPGVEGGGCEGVLEEGRQCNREACGPAGRTSSRSQSLRSTDARRREELGDELQQFGFPAPQTGDPAAEEWSPWSVCSSTCGEGWQTRTRFCVSSSYSTQCSGPLREQRLCNNSAVCPVHGAWDEWSPWSLCSSTCGRGFRDRTRTCRPPQFGGNPCEGPEKQTKFCNIALCPGRAVDGNWNEWSSWSACSASCSQGRQQRTRECNGPSYGGAECQGHWVETRDCFLQQCPVDGKWQAWASWGSCSVTCGAGSQRRERVCSGPFFGGAACQGPQDEYRQCGTQRCPEPHEICDEDNFGAVIWKETPAGEVAAVRCPRNATGLILRRCELDEEGIAYWEPPTYIRCVSIDYRNIQMMTREHLAKAQRGLPGEGVSEVIQTLVEISQDGTSYSGDLLSTIDVLRNMTEIFRRAYYSPTPGDVQNFVQILSNLLAEENRDKWEEAQLAGPNAKELFRLVEDFVDVIGFRMKDLRDAYQVTDNLVLSIHKLPASGATDISFPMKGWRATGDWAKVPEDRVTVSKSVFSTGLTEADEASVFVVGTVLYRNLGSFLALQRNTTVLNSKVISVTVKPPPRSLRTPLEIEFAHMYNGTTNQTCILWDETDVPSSSAPPQLGPWSWRGCRTVPLDALRTRCLCDRL

These are yes or no findings as the source states them, for the method shown. Binding seen in cells or lysates may run through a third protein. Binding can be weak; no strength is given. Sequences can lack the tags named with a protein.
